Drawing on the supplement of paper PMC5949888, this text covers growth estimate for 77 substances.

Most values lie at the floor of the assay. Slopes are relative: functional sequences can read slightly below zero.

For this data set, the system named is Saccharomyces cerevisiae PS128 hsf1 delta, HSF1(1-493) fusion. Kind of data set: growth estimate (transactivation domain function in HSF1 fusion, heat-shock survival) (a.u. (slope of normalised read count over time)); higher = stronger growth at 37°C, i.e. more transactivation activity. To be noted: library: random library.
Consider WEVDMVSYARTLLLVSCDRP, for which the growth estimate is under -0.25.
Turning to VWWVTAIFPLGFRECVPLSS, the growth estimate is under -0.25.
As to PVHINCVRFVGRWRFRAE, the growth estimate was under -0.25.
With ARHFNENYTDGLAWKSWELT the figure was under -0.25; with EESVRCEIDLSFN, under -0.25.
With RVKNRVRRLAVLRIGAVYKH the figure was under -0.25.
With PRRVLKRMDPQQVWASLRGN the figure was under -0.25.
Turning to RPRDWRNCQ, the growth estimate is -0.241.
With FDIDESWTMTGTKQGGV the figure was under -0.25; with PSIMGMASRFTTS, under -0.25; with RAAALANSGALPIFRTTVSR, under -0.25.
With LILSTDGSNRSHHPS the figure was under -0.25; with CGMMFACLIRPSSCIC, under -0.25.
With VLLRLATSARHASTKSNVGR the figure was under -0.25; with LRPDRV, -0.246; with ALVVSGRWVLRPAW, under -0.25.
Take MAN: the growth estimate is under -0.25.
With RLASSDVL the figure was under -0.25; with YICSSRAMTLTCVVVYVRGR, under -0.25.
With RLPGEKRKVYELLPN the figure was under -0.25; with NNVRGASLTEGFSHNFW, under -0.25.
Take SCLVFLLTFTCYVP: the growth estimate was under -0.25.
With RAFLFPSGV the figure was under -0.25.
With GGRVLGRSRSRLTLIYSTLR the figure was under -0.25; with EEGLNPKGPEEPLNGEVHCA, under -0.25; with CWKAACEKVRVSI, under -0.25.
With SAGNEQTGCHSTF the figure was under -0.25.
As to PPLPRGDLDRSIGR, the growth estimate was under -0.25.
Turning to IIGQAFLAGVGQSLSASSAA, the growth estimate was under -0.25.
With GGEPRISSEQQATPRPRVYG the figure was under -0.25; with SRGHCLTVSKWVIIQQHCVD, under -0.25; with GYRITYQQEYDKALNRDCNL, under -0.25.
With KRVCNALLRAG the figure was under -0.25; with RSRQAGPHSLHRPSIAFHHR, under -0.25; with RVPWTWQ, under -0.25.
With PCTPSYLTASKWQRIRAVCV the figure was under -0.25; with FEVYEITRAPASHGRTTCRV, 0.342.
On to PAEVTWRLSSVLTFCGVGGD, for which the growth estimate is under -0.25.
With TDLISRLMVCVIH the figure was under -0.25; with LKNGRLLALSM, under -0.25.
With TGALARRFFLGERTWLLAVP the figure was under -0.25.
With ETGVDLRPQCVRLAARYCR the figure was under -0.25.
Consider ASESTTGRDGSAASAHAQRV, for which the growth estimate was under -0.25.
With LRVGFRDAPVGSKLVRGVVV the figure was under -0.25.
On to GARLLQH, for which the growth estimate is under -0.25.
With VNGLSKALRVPCASQTALVK the figure was under -0.25.
With LVLRAYSVLDSRGMAGAQSS the figure was under -0.25; with SGSRPREHKLNLNVSRKFCG, under -0.25.
For the substance PREEDTWYAKDPHGTF, the growth estimate was under -0.25.
In the case of MGIPITRNLLGSVVRCAYRG, the growth estimate is under -0.25.
As to ILSPNRLLGWRRPEAGGY, the growth estimate was under -0.25.
FVDYPA: the growth estimate was under -0.25.
PEGPMSGVGHLHRGRCRILL: the growth estimate is under -0.25.
With NRSPSVHQVLPVGCGSSDLP the figure was under -0.25; with LQSL, under -0.25; with KSIVTSSGITTFQL, -0.229.
With GESYVLHMIRGFLRMLYHHR the figure was under -0.25.
With VNW the figure was under -0.25; with TSGRLVHYRAHCHR, under -0.25; with KGVMPAQNSSLRPQGRPKGA, under -0.25.
RAKGGAERWSNGKLLNLSLT: the growth estimate is under -0.25.
With GEF the figure was under -0.25.
Take ESALPGPGVYKLTSSKYGTP: the growth estimate is under -0.25.
With CETCNRPVHIRWMG the figure was under -0.25; with AYEH, under -0.25; with RLMSGFWRLNMLRTLDILAV, under -0.25.
With SNIALSYKSLPEQRTTDGPG the figure was under -0.25; with LLGGVWVLSAQVRLIELSAA, under -0.25; with VEWAALSIRGGLY, under -0.25.
With ACCRM the figure was under -0.25.
For the substance SCRPRLGIESHTLKTERRVP, the growth estimate was under -0.25.
With TRVWRRFKRLGGAFRVYKVF the figure was -0.246.
With SDQACKALSLSRPRRPQRRP the figure was under -0.25; with CKRSRVDLGHQPHDWMRCGI, under -0.25.
Regarding LRDQGCDRDSLFSRARASR, the growth estimate is under -0.25.
With SSHEVCNGRDHPPSRPSRHP the figure was under -0.25; with VRLAYGYNFWPTKAVVFYSN, under -0.25.
